Measured values taken from publication PMC3460623.
Positions count from the first letter of the chain named. In names and notes the source's numbering stands. These are yes or no findings as the source states them, for the method shown. In cells and extracts the contact can be indirect. Some binding calls cover weakened binding; strength is not graded here. For part of these data: Tags and fused reporters may be left off the sequences shown.

T1: Phospholipase C γ1 (PLCγ1), endogenous (human (endogenous in HEK293 and HEK293T)) (UniProt P19174)
T1 sequence: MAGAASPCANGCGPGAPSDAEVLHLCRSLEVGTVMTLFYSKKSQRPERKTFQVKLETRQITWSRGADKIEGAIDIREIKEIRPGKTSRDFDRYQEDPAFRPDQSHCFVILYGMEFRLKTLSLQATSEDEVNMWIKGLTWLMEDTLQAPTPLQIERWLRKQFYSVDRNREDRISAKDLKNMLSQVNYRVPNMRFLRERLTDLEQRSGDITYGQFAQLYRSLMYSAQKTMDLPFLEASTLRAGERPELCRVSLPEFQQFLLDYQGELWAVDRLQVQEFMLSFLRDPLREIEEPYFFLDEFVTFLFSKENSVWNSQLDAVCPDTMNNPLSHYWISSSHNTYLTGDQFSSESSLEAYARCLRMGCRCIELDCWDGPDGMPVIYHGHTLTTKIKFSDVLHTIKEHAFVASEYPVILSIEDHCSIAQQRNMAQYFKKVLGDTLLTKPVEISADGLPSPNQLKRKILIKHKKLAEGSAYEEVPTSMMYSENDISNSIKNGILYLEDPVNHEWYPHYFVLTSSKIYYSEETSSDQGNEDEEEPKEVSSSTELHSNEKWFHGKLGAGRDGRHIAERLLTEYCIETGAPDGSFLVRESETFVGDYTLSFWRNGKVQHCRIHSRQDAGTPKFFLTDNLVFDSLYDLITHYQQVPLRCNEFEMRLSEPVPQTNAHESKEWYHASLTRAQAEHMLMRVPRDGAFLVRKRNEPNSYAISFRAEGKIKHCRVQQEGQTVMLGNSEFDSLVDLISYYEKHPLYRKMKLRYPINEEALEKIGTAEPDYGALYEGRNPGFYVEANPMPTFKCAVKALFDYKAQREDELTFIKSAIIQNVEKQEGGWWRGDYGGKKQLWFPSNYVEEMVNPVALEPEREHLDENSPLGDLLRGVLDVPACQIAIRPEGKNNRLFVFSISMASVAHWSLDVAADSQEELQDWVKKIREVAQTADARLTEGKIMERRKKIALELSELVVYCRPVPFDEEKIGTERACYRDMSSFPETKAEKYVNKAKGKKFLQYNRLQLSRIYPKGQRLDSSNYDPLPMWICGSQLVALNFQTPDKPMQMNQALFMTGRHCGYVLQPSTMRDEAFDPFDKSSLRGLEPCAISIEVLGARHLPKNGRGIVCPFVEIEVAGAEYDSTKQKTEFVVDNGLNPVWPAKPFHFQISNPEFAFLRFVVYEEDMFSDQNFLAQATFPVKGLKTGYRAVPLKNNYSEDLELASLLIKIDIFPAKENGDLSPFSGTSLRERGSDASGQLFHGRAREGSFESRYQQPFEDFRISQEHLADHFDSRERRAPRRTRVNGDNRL

B1: KSHV K15 protein, P allele, wild type (pSF91K15) (protein, UniProt Q9QR69 27-489)
chain: VTTNSIDTMASLLVMCILFVSAINKYTQAISSNNPKWPSSWHLGIIACIVLKLWNLSTTNSVTYACLITTAILSLVTAFLTLIKHCTACKLQLEHGILFTSTFAVLMTNMLVHMSNTWQSSWIFFPISFTLSLPFLYAFATVKTGNIKLVSSVSFICAGLVMGYPVSCCKTHTCTATAAGLSLSSIYLGFTGIISTLHKSWAPPKRGILTFLLLQGGVLTTQTLTTELLAITSTTGNIKGHEILLLVCLIFLWCLYVWQSFNKASLVTGMLHLIAAWSHTGGCVQLVMLLPSGLTRGILTMIICISTLFSTLQGLLVFYLYKEKKVVAVNSYRQRRRRIYTRDQNLHHNDNHLGNNVISPPPLPPFFRQPVRLPSHVTDRGRGSQLLNEVELQEVNRDPPNVFGYASILVSGAEESREPSPQPDQSGMSILRVDGGSAFRIDTAQAATQPTDDLYEEVLFPRN
B2: FLAG-tagged K15P (pFJ-K15P) (protein, UniProt Q9QR69 27-489)
chain: B1 chain
B3: KSHV K15-P YF/ΔSH3 double mutant (pSF91K15/YF/ΔSH3) (protein, UniProt Q9QR69 27-489)
chain: B1 chain with P361A, P362A, P364A, Y455F

Key:
[1] = target: T1, Phospholipase C γ1 (PLCγ1), endogenous (human (endogenous in HEK293 and HEK293T)); assay: co-IP; HEK293 transiently transfected with pSF91 K15 vectors; HEPES lysis buffer (150 mM NaCl, 1% Triton-X100); endogenous PLCγ1 immunoprecipitated with rabbit anti-PLCγ1 and protein A Sepharose at 4°C; blot with polyclonal anti-K15
[2] = target: T1, Phospholipase C γ1 (PLCγ1), endogenous (human (endogenous in HEK293 and HEK293T)); assay: co-IP; HEK293T transiently transfected with pFJ-K15P or pFJ-K15M; endogenous PLCγ1 immunoprecipitated; K15 detected with an antibody to the FLAG tag

| Binder | binding [1] | binding [2] |
| --- | --- | --- |
| B1 | binds |  |
| B2 |  | binds |
| B3 | no binding |  |
